Laboratory results from PubChem BioAssay (EPA / NIEHS).
Inconclusive results, whose numbers are uncertain, are shown with a selection of clear calls. Where the call is inconclusive, the potency comes from a doubtful curve fit. Activity calls are given as the source filed them. Rule for the calls: active = hit-call score of the fitted dose curve at least 0.9, where 1 is the maximum; inconclusive = response in the unintended direction; inactive = score below 0.9.

target: Cytochrome P450 2C19 (Homo sapiens) (UniProt P33261); assay: NVS_ADME_hCYP2C19: NovaScreen (NVS) CYP450-related Enzyme Activity (ADME) Assay for human CYP2C19 (AID 2283113);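 for AC50: potency for inhibition seen as loss of fluorescent signal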
Procedure: NVS_ADME_hCYP2C19 is a biochemical, single-readout assay that uses extracted gene-proteins from insect cells in a cell-free assay. Measurements were taken 1 hour after chemical dosing in a 96-well plate.NVS_ADME_hCYP2C19 is one of one assay component(s) measured or calculated from the NVS_ADME_hCYP2C19 assay. It is designed to make measurements of enzyme activity, a form of enzyme reporter, as detected with fluorescence intensity signals by Fluorescence technology.Data from the assay component NVS_ADME_hCYP2C19 was analyzed into 1 assay endpoint. This assay endpoint, NVS_ADME_hCYP2C19, was analyzed in the positive analysis fitting direction relative to Acetonitrile as the negative control and baseline of activity. Using a type of enzyme reporter, loss-of-signal activity can be used to understand changes in the enzymatic activity as they relate to the gene CYP2C19. Furthermore, this assay endpoint can be referred to as a primary readout, because this assay has produced multiple assay endpoints where this one serves a enzymatic activity function. To generalize the intended target to other relatable targets, this assay endpoint is annotated to the cyp intended target family, where the subfamily is xenobiotic metabolism.
Binding assays used specific radioligands (tritiated, iodinated) with non-radioactive competitive displacement ligands in agonist or antagonist protocols (as indicated) and various reference compounds and inhibitors to titrate specific binding to receptors and transporters. Most enzyme assays (CYPs, kinases, phosphatases, proteases, HDACs) used recombinant protein and specific substrates (fluorescence mostly, some colorimetric and radioactive) and inhibitors, followed by a biochemical separation of substrate and product. All assays for the biochemical HTS were initially run in duplicate at a single concentration (10 uM for CYP450 assays and 25 uM for all others). […] Each assay was run with positive and negative controls, and concurrent controls on every plate. The follow-up (secondary) screen tested active chemical-pairs in concentration series, as well as a few additional assays not tested in the primary screen, some selected negative inactives, and several cases re-run in the concentration series for confirmatory purposes.

Row | SMILES | AC50 | outcome
1 | CCNc1nc(Cl)nc(NC(C)(C)C#N)n1 | inconclusive: 0.0489 µM | –
2 | CCOC1Oc2ccc(OS(C)(=O)=O)cc2C1(C)C (stereo not given) | active: 3.56 µM | –
3 | COP(=O)(OC)O/C(C)=C/C(=O)N(C)C | – | inactive
4 | CNc1cnn(-c2cccc(C(F)(F)F)c2)c(=O)c1Cl | active: 4.35 µM | –
5 | CCCCC(CC)COC(=O)c1ccccc1C(=O)OCC(CC)CCCC (stereo not given) | – | inactive
6 | CCNc1nc(NC(C)C)nc(SC)n1 | active: 4.91 µM | –
7 | Nc1ccc(Cc2ccc(N)cc2)cc1 | active: 14.4 µM | –
8 | Nc1ccc(-c2ccc(N)cc2)cc1 | active: 8.09 µM | –
9 | Nc1ccc(Cl)cc1N | – | inactive
10 | C#CC(C)(C)NC(=O)c1cc(Cl)cc(Cl)c1 | inconclusive: 0.0721 µM | –
11 | Nc1cnn(-c2ccccc2)c(=O)c1Cl | inconclusive: 0.0569 µM | –
12 | N#CC(Br)(Br)C(N)=O | inconclusive: 2.36 µM | –
13 | Fc1ccc(Oc2ccnc3cc(Cl)cc(Cl)c23)cc1 | – | inactive
14 | O=C(O)c1nc(Cl)ccc1Cl | inconclusive: 0.0294 µM | –
15 | O=C(O)C(F)(F)C(F)(F)C(F)(F)C(F)(F)C(F)(F)C(F)(F)C(F)(F)F | inconclusive: 10 µM | –
